Cell count data for 17 compounds are collected here from PubChem BioAssay AID463183 (Sanford-Burnham Center for Chemical Genomics, 2010).

The structures appear in SMILES notation. This is one part of the list. Shown are side measurements of this screen, not its main read-out; they come without a call. The list favours compounds with an active or inconclusive main result.

A short description of this assay: hepatocyte lipid droplet accumulation inhibitors, confirmation, imaging, AML12 mouse hepatocytes, single concentration, high-content (AID 463183).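 Further: cells counted after overnight compound exposure.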 The conditions noted are these: BODIPY lipid droplet imaging, measured here: cell count, cytotoxicity, at 5.2 µM, droplets induced with 100 µM oleic acid.
`O=C(NCc1cccs1)C1CCC(CNS(=O)(=O)c2cccs2)CC1` (configuration not stated) had a cell count of 1640 cells. Consider `Cc1cccc(Oc2ccc(Cl)cc2N)c1`, for which the cell count was determined as 1600 cells. As to `Cc1cc(C)cc(N(CC(=O)O)S(=O)(=O)c2c(C)noc2C)c1`, the cell count was 1630 cells. The result for `O=C/C=C/c1c(-c2ccccc2)cc2oc3ccccc3cc1-2` reads 1580 cells. Turning to `CCN(CC)c1ccc(NC(=O)CCc2nnc3ccc(N4CCCC4)nn23)c(C)c1`, the cell count came out at 1670 cells.

`CCn1cc([N+](=O)[O-])c(C(=O)N2N=C(c3ccc4ccccc4c3)CC2c2ccccc2O)n1` (configuration not stated) returned a cell count of 1610 cells.

In turn, `COc1c([N+](=O)[O-])cc(C(=O)NNC(=O)c2ccc(C)cc2)cc1[N+](=O)[O-]` yielded a cell count of 1560 cells. `O=C(CNc1cc(S(=O)(=O)N2CCCC2)ccc1OCC(F)(F)F)Nc1cccc(C(F)(F)F)c1` had a cell count of 1490 cells. The compound `CCC(C)(C)NC(=O)C(c1ccc(C)cc1)N(CC1CCCO1)C(=O)CCC(=O)Nc1ccccn1` (configuration not stated) came in with a cell count of 1610 cells. `O=C(Cc1cccc2ccccc12)Nc1c(F)cccc1F` gave a cell count of 1640 cells. The result for `Cc1ccc(C(=O)Nc2ccccc2C(=O)NCc2cccnc2)cc1` reads 1660 cells. Consider `CCOc1ccc(CCNC(=O)Cn2cccc2C(=O)c2ccccc2)cc1OCC`, for which the cell count is 1570 cells. Consider `COc1ccccc1/C=N\Nc1ccccc1[N+](=O)[O-]`, for which the cell count was 1630 cells. `CCC(C(=O)NCCc1ccccc1OC)n1nc(C)c2c(C)n(-c3ccccc3)nc2c1=O` (configuration not stated) showed a cell count of 1620 cells. With `CCOc1ccc(CCNC(=O)C2CC(=O)N(Cc3ccc(OC)cc3)C2)cc1OCC` (configuration not stated), the cell count amounted to 1560 cells. `COc1ccccc1CNS(=O)(=O)c1ccc2c(c1)CC(C)N2C(=O)C1CC1` (configuration not stated) returned a cell count of 1600 cells.

For `Cc1coc2cc3oc(=O)cc(C)c3cc12`, the cell count is 1590 cells.
